Results are given in words; binding and its absence hold for the method and conditions named. Binding seen in cells or lysates may run through a third protein. A result given as binding can be weak or reduced; the word gives no strength.
Biological target: altDDIT3^GFP (human) (UniProt P0DPQ6)
Assay: co-IP; GFP-Trap agarose beads on lysates of HeLa cells co-expressing both constructs; lysis 0.5% NP40, Tris-HCl 50 mM pH 7.5, NaCl 150 mM; overnight; washes with NaCl 200 mM; western blot of GFP and mCherry

Chains of the proteins cited; added tags and fusions are not shown. Lines headed by an entry give the natural chain unless they say otherwise; changes in a name come on top.
UniProt P0DPQ6: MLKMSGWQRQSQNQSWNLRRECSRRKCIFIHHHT

DDIT3^mCherry (from UniProt P35638-1 1-169)
binding: binds

From article PMC5703645
